Measured values from PubChem BioAssay AID504375 (National Center for Advancing Translational Sciences (NCATS), 2011).
The whole screen tested about 1,600 compounds, of which about 25 (2%) were called active. About 7% were inconclusive and are not listed. The call rests on the fitted dose curve; in most records, active means well fitted inhibition curve with a large enough effect; inconclusive means small, poorly fitted or top-dose-only effect, or effect the other way; inactive means no such curve, though single readings can be large or run the other way. The list shows a part of the results.

Amino acid sequences for entries named in this document (tags omitted).
UniProt Q01196, whole entry, looked up: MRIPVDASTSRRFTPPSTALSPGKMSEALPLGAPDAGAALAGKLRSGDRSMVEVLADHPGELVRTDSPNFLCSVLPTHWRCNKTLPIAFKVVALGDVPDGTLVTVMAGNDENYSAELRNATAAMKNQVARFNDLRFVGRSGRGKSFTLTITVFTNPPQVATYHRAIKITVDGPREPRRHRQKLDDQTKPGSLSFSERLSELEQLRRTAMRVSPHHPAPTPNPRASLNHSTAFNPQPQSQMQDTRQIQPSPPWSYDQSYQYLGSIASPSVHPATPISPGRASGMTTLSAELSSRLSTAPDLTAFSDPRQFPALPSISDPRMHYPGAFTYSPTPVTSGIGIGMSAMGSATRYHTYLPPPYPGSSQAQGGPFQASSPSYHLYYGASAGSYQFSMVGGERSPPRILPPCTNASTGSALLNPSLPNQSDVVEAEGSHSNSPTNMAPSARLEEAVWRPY
UniProt Q13951, whole entry, looked up: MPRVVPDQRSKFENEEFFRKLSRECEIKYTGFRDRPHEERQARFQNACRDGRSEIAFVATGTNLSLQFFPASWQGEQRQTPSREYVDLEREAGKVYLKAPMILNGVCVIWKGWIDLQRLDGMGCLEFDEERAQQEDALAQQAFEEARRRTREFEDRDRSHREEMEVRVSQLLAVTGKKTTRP

Molecular target: Runt-related transcription factor 1 (Homo sapiens) + Core-binding factor subunit beta (Homo sapiens) (UniProt Q01196+Q13951)
Assay: qHTS Assay for Compounds Blocking the Interaction Between CBF-beta and RUNX1 for the Treatment of Acute Myeloid Leukemia: Hit Validation with Orthogonal Assay
Details: CBFbeta-RUNX1 binding orthogonal assay, biochemical; series mostly up to 41 µM; activity change, negative = inhibition: at the top concentration
Method in brief: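 This is an orthogonal TR-FRET assay. His6-CBF-beta and biotin-RUNX1 (30 nM each) were preincubated with compound for 30 min, then Tb-anti-His antibody (0.44 ng) and streptavidin-XL665 (5 nM) were added. The signal was read after 90 min.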
On the % scale 0 is the no-effect control and ±100 the full control effect.

Activity change, negative = inhibition, inactive:
CCOC(=O)c1nnn2c3ccccc3c(=O)n(C)c12 8.61%
O=C(O)CSc1ccc(NC(=O)Nc2ccccc2F)cc1 -3.32%
Cc1ccc(S(=O)(=O)Nc2cc(-c3ccccc3)nn2C)cc1 -5.02%
COC(=O)c1ccc(S(=O)(=O)N(CCO)Cc2ccccc2)n1C 6.67%
CCOC(=O)c1ccc(NC(=O)CC2SC3=NCCN3C2=O)cc1 (stereo unspecified) -0.306%
Cc1ccc(C2=Nc3ccccc3SC(c3cccc([N+](=O)[O-])c3)C2)cc1 (stereo unspecified) -0.0245%
Cc1ccc(NC(=S)Nc2ccc3[nH]c(=O)[nH]c3c2)cc1 -1.76%
COc1ccc(-c2cn[nH]c2C)cc1 5.55%
COC(=O)c1ccc(S(=O)(=O)NCc2ccccc2)n1C -10.2%
COc1ccc(Nc2cc(=O)n(-c3ccccc3)c3c2c(=O)n(C)c(=O)n3C)cc1 6.15%
CCCCCCC(=O)N(O)C1CC(=O)N(c2ccc(F)cc2)C1=O (stereo unspecified) -19.4%
Cc1oc(S(=O)(=O)N(C)C)cc1C(=O)Nc1ccc(Cl)cc1 6.32%
O=S(=O)(NCc1c(Cl)cccc1Oc1ccccc1)c1ccc(F)cc1 -3.08%
Cc1cccc(C)c1OCC(=O)N(Cc1ccc(N(C)C)cc1)C1CCS(=O)(=O)C1 (stereo unspecified) 5.43%
CCOC(=O)COc1nc(C)cc(C(F)(F)F)c1C#N 13.6%
Nc1c2ccccc2nc2ccccc12 26%
CC(=O)c1cc(C#N)c(SCc2ccccn2)nc1C 30.9%
CC(=O)N1CCCC1(C(=O)O)c1ccccc1 (stereo unspecified) 3.9%
CC(C)COP(=O)(c1ccc(N(C)C)cc1)C(O)c1cccnc1 (stereo unspecified) -0.917%
C=C(C)C(=O)Nc1cccnc1Oc1ccc(F)cc1 -13.7%
O=C(O)/C=C/c1cn(-c2ccccc2)nc1-c1ccc(-c2ccc([N+](=O)[O-])cc2)o1 17.8%
N/C(CSc1ccccn1)=N\OCc1c(Cl)cccc1Cl 4.65%
COc1ccc(C(=O)/C=C/Sc2nc3ccccc3o2)cc1 -0.575%
CC1(C)N=C(N)N=C(N)N1c1ccc(OCCCOc2ccccc2)c(Cl)c1 5.17%
Nc1nc(CCl)nc(N(c2ccccc2)c2ccccc2)n1 0.416%
Cc1cc(NC(=O)CN2CCCCC2)n(-c2ccccc2)n1 0.881%
COc1cc([N+](=O)[O-])ccc1NC(=O)Oc1ccc(NC(C)=O)cc1 19.7%
COc1ccc(/C=N/NC(=O)c2cc(C3CC3)[nH]n2)cc1OC 6.35%
COC(=O)[C@H](CC(C)C)NC(=O)NCCC1=CCCCC1 -7.06%
COc1ccc(-c2noc(-c3cccs3)n2)cc1OC -14%
Cc1ccc(C(=O)OCC(=O)Nc2ccc(S(N)(=O)=O)cc2)c(O)c1 2.67%
O=c1[nH]c(SCCN2CCOCC2)nc(O)c1-c1ccccc1 8.01%
COc1ccccc1NC(=S)NC1CCCCCCCCCCC1 -0.232%
N#CC(C#N)=C(N)Nc1cccc(Cl)c1 0.208%
O=C(O)COc1ccccc1/C=N/NC(=O)CSc1nnc(-c2ccc(Cl)cc2)n1C1CCCCC1 11.9%
O=S(=O)(c1ccc(Cl)nc1)N1CCc2ccccc21 -9.75%
Cc1csc2c(N3CCN(S(=O)(=O)c4ccc(Cl)cc4)CC3)ncnc12 2.89%
NC(=S)N1CCCc2ccccc21 9.03%
O=S(=O)(CCN1CCSCC1)c1ccc(Cl)cc1 -6.89%
CCCn1nnc(NC(=S)NC(=O)c2ccc(-c3ccc(Br)cc3)o2)n1 6.06%
CN(C)CCCNC(=O)c1ccccc1Oc1ccccc1 -7.98%
NC(=O)C1CCN(C(=S)NC2CC3C=CC2C3)CC1 (stereo unspecified) -5.58%
CSc1ccc(C(=O)NCC(=O)O)cc1[N+](=O)[O-] 33.5%
CSc1cccc(NC(N)=S)c1 5.35%
C1CCCC(NC2=NCCO2)CCC1 5.31%
CN1c2ccccc2C(=O)/C(=C\Nc2ncccn2)S1(=O)=O 4.25%
OCc1nc2ccc(Cl)cc2[nH]1 3.85%
Cc1ccc(/C=N/n2c(-c3ccncc3)n[nH]c2=S)s1 39.9%
COC(=O)c1cc(S(=O)(=O)Nc2nn(C)c3cccc(F)c23)oc1C 8.34%
COc1ccc(Cc2c(O)nc(SCC(=O)N3CCOCC3)[nH]c2=O)cc1 14%
CCOC(=O)COc1nc2c(c(-c3ccco3)c1C#N)CCc1ccccc1-2 0.967%
CC(=O)Nc1nnc(CSCc2ccc(F)cc2)s1 6.97%
Cc1ccc(Cl)cc1NC(=S)NN -11.4%
Cc1nc([N+](=O)[O-])cn1CCC#N 5.53%
CCn1c2ccccc2c2cc(NC(=O)c3ccccc3-c3ccccc3C(=O)O)ccc21 -23.3%
COC(=O)Cc1[nH]c(=O)[nH]c1C(=O)OC 1.06%
COc1ccc(C(=O)CN2CCN(c3cc(C)nc4ccccc34)CC2)cc1 -6.56%
COC(=O)CC1C(=O)NC(C)=C1C(=O)OC (stereo unspecified) -18.1%
CCn1c(NC(=O)c2ccccc2F)c(-c2cccs2)c(=O)c2ccccc21 -0.942%
CC12CCC(C(=Nc3ccc(N=C4C(=O)C5(C)CCC4C5(C)C)cc3)C1=O)C2(C)C -23.8%
CCC(CC)NCCOC(=O)c1ccc([N+](=O)[O-])cc1 28.2%
O=[N+]([O-])c1ccc(Sc2ccccn2)nc1 55.4%
CCC(C)c1ccc(OCc2ccc(C(=O)OC)o2)cc1 (stereo unspecified) 5.36%
CCOC(=O)c1cn2nc(Oc3ccccc3)ccc2n1 9.4%
O=C(O)c1ccccc1C(=O)Nc1ccc(-n2ccc(C(F)(F)F)n2)cc1 -6.89%
[O-][N+]12CCCCC1CCCC2CO (stereo unspecified) -6.68%
CC(=O)Nc1ccc(Nc2cc(C(C)C)nc3c(-c4ccccc4)c(C)nn23)cc1 9.96%
CCOC(=O)c1cn[nH]c1NC(=S)Nc1ccccc1 -12.5%
COc1cc(/C=N/n2cc(-c3ccccc3)[nH]c2=S)cc(OC)c1O 23.5%
CCOC(=O)N1CCC(NS(=O)(=O)c2ccc(C)c(Cl)c2)CC1 -6.68%
Cc1nn(Cc2cccc(C(=O)NN)c2)c(C)c1Cl 7.88%
CCOC(=O)c1ccc(OC)c(OC)c1Cl 6.26%
O=C(Oc1c(-c2ccccc2)c(=O)n2c3c(cccc13)CC2)c1cccc([N+](=O)[O-])c1 29.9%
CC1SCC(NC(=O)c2ccccc2Cl)CS1 (stereo unspecified) -3.61%
CCOC(=O)c1c(CN2CCN(CCO)CC2)n(-c2ccccc2)c2cc(Br)c(O)cc12 4.21%
CCOC(=O)/C=C/c1nc(C(=O)OCC)c(C)c(=O)[nH]1 9.57%
COc1cccc(/C=N/NC(=O)C(C)Cn2cnc3ccccc32)c1 (stereo unspecified) 4.2%
Brc1ccc(Cn2c(-c3ccc(Br)o3)nc3ccccc32)o1 -42% [at 22.1 µM]
CN1CCN(CC(=O)Nc2c(C#N)cnn2-c2ccccc2)CC1 -2.51%
CCn1c(=O)c2c(nc3n2CCCN3c2cccc(C)c2)n(C)c1=O 1.04%
CC1(C)CC(=O)C2=C(C1)OC(N)=C(C#N)[C@@H]2c1ccccc1[N+](=O)[O-] 5.51%
COC(=O)CC1=C(C(=O)OC)[C@@H](c2ccccc2[N+](=O)[O-])C(C#N)=C(N)O1 11.6%
CC1(C)C(CC2OCC(CN3CCCCC3)O2)[C@H]2CC[C@@H]1C2 (stereo partly specified) -3.28%
NNC(=S)Nc1c(F)cc(F)cc1Br -12.6%
C/C(=N\NC(=O)Cn1nc(C)cc1C)c1ccc([N+](=O)[O-])cc1 53.1%
C[N+](C)(C)CCCN(Cc1ccc2c(c1)OCO2)C(=O)NC1CCCCC1 -2.08%
O=C(O)C1CC(c2ccccc2)=Nc2ccccc2S1 (stereo unspecified) -10.5%
c1ccc(CN(Cc2ccccc2)c2ncnc3c2nnn3Cc2ccccc2)cc1 14.9%
CN1CCC(CNC(=O)Nc2csc3ccccc23)CC1 7.24%
COc1ccc(CCN2C(=O)CSC2=Nc2ccc(C(C)C)cc2)cc1OC 0.538%
CCN(CC)C(=O)C12C(=O)Oc3ccccc3C1C2(C)C(=O)c1ccc(F)cc1 (stereo unspecified) 11.6%

17 neighbouring records out of the list so far:
Activity change, negative = inhibition, inactive:
COC(=O)[C@H](CC(C)C)NC(=O)NCCC1=CCCCC1 -7.06%
COc1ccc(-c2noc(-c3cccs3)n2)cc1OC -14%
Cc1ccc(C(=O)OCC(=O)Nc2ccc(S(N)(=O)=O)cc2)c(O)c1 2.67%
O=c1[nH]c(SCCN2CCOCC2)nc(O)c1-c1ccccc1 8.01%
COc1ccccc1NC(=S)NC1CCCCCCCCCCC1 -0.232%
N#CC(C#N)=C(N)Nc1cccc(Cl)c1 0.208%
O=C(O)COc1ccccc1/C=N/NC(=O)CSc1nnc(-c2ccc(Cl)cc2)n1C1CCCCC1 11.9%
O=S(=O)(c1ccc(Cl)nc1)N1CCc2ccccc21 -9.75%
Cc1csc2c(N3CCN(S(=O)(=O)c4ccc(Cl)cc4)CC3)ncnc12 2.89%
NC(=S)N1CCCc2ccccc21 9.03%
O=S(=O)(CCN1CCSCC1)c1ccc(Cl)cc1 -6.89%
CCCn1nnc(NC(=S)NC(=O)c2ccc(-c3ccc(Br)cc3)o2)n1 6.06%
CN(C)CCCNC(=O)c1ccccc1Oc1ccccc1 -7.98%
NC(=O)C1CCN(C(=S)NC2CC3C=CC2C3)CC1 (stereo unspecified) -5.58%
CSc1ccc(C(=O)NCC(=O)O)cc1[N+](=O)[O-] 33.5%
CSc1cccc(NC(N)=S)c1 5.35%
C1CCCC(NC2=NCCO2)CCC1 5.31%

Ordered by count of non-hydrogen atoms (low to high): some entries from above.
Activity change, negative = inhibition, inactive:
CSc1cccc(NC(N)=S)c1 5.35%
Cc1ccc(S(=O)(=O)Nc2cc(-c3ccccc3)nn2C)cc1 -5.02%
Cc1ccc(C2=Nc3ccccc3SC(c3cccc([N+](=O)[O-])c3)C2)cc1 (stereo unspecified) -0.0245%
